Assay results taken from PMC11260479.
Negatives hold for the conditions tested. At least one verdict was read from the data and is not stated in words by the source.

Amino acid sequences for entries named in this document (tags omitted).
UniProt Q06609, whole entry: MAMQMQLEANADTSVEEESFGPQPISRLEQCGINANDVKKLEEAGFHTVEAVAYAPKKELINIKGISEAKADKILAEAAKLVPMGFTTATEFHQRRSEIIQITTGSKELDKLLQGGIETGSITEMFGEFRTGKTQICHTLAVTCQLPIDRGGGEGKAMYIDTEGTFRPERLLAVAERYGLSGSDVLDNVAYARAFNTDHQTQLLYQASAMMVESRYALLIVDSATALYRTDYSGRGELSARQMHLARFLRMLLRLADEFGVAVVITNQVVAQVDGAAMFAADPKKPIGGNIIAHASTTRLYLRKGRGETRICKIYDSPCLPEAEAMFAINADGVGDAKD

Molecular target: RAD51 (UniProt Q06609)
Test: EMSA
Settings: 2 mM ATP, 5 mM CaCl2, RAD51 up to at least 1000 nM, 10 nM DNA. RAD51: 20 mM Tris-HCl pH 8.0, 30 mM NaCl, 1 mM DTT, 5 mM CaCl2, 0.2% Tween 20, 37 C 15 min. BG4: 20 mM Tris-HCl pH 8.0, 30 mM KCl, 1 mM MgCl2, commercial protein, residues 1-339, folded or branched DNA

## AGGGAGGGCGCTGGGAGGAGGG [c-KIT G4]
  binding result: no binding
